Assay results taken from patent US9978954B2, “Benzobis (thiadiazole) derivative, ink comprising same, and organic electronic device comprising same” (UBE INDUSTRIES, LTD., priority 2013, dated 2018).
Some entries repeat one wording, which the source may state once for all of them.

Assays:
[1] = Field-effect mobility of organic TFT, organic semiconductor layer by spin-coating
[2] = Field-effect mobility of organic TFT, organic semiconductor layer by drop-casting
[3] = Field-effect mobility of organic TFT, organic semiconductor layer by vacuum deposition, incl. after being left in the atmosphere; conditions: drain voltage 100 V
[4] = ink 0.1 wt % in chloroform heated at 60° C., CYC substrate, heated at 240° C. for 35 minutes, drain voltage 20 V
[5] = ink 0.1 wt % in chloroform heated at 60° C., CYC substrate, heated at 240° C. for 35 minutes, drain voltage 100 V
[6] = ink 0.1 wt % in chloroform heated at 60° C., PVP substrate, heated at 180° C. for 35 minutes, drain voltage 100 V
[7] = HMDS-modified substrate, initial

CCCCCCCCCCCCc1cc(-c2ccc(-c3c4c(c(-c5ccc(-c6ccc(C#N)c(CCCCCCCCCCCC)c6)s5)c5nsnc35)N=S=N4)s2)ccc1C#N [Compound (C17), 4,8-bis[5-(4-cyano-3-dodecylphenyl)thiophene-2-yl]benzo[1,2-c:4,5-c′]bis[1,2,5]thiadiazole]
field-effect mobility (μ) [1, 4]: 1.1×10^0 cm^2/Vs
field-effect mobility (μ) ([1]; ink 0.1 wt % in chloroform heated at 60° C., CYC substrate, heated at 240° C. for 35 minutes, drain voltage 50 V): 2.2×10^0 cm^2/Vs
field-effect mobility (μ) [1, 5]: 3.1×10^0 cm^2/Vs
field-effect mobility (μ) ([1]; ink 0.1 wt % in chloroform heated at 60° C., PVP substrate, heated at 180° C. for 35 minutes, drain voltage 20 V): 8.8×10^−1 cm^2/Vs
field-effect mobility (μ) ([1]; ink 0.1 wt % in chloroform heated at 60° C., PVP substrate, heated at 180° C. for 35 minutes, drain voltage 50 V): 1.1×10^0 cm^2/Vs
field-effect mobility (μ) [1, 6]: 3.1×10^0 cm^2/Vs
field-effect mobility (μ) ([1]; ink 0.1 wt % in chloroform heated at 60° C., bare substrate, heated at 180° C. for 35 minutes, drain voltage 100 V): 2.3×10^0 cm^2/Vs
field-effect mobility (μ) ([2]; bottom gate-bottom contact, 0.12 wt % solution in 1-methylnaphthalene mixed 1:1 with dodecanol 200 μmol/L, PVP substrate, heated at 150° C. for 35 minutes, drain voltage 50 V): 2.8×10^−2 cm^2/Vs
field-effect mobility (μ) ([2]; bottom gate-bottom contact, 0.12 wt % solution in 1-methylnaphthalene mixed 1:1 with dodecylamine 20 μmol/L, PVP substrate, heated at 150° C. for 35 minutes, drain voltage 50 V): 3.0×10^−2 cm^2/Vs
field-effect mobility (μ) ([2]; bottom gate-bottom contact, 0.2 wt % solution in 1-methylnaphthalene mixed 1:1 with 4-methylbenzenethiol 20 μmol/L, PVP substrate, heated at 150° C. for 35 minutes, drain voltage 50 V): 3.2×10^−2 cm^2/Vs
field-effect mobility (μ) ([2]; bottom gate-bottom contact, 0.2 wt % solution in 1-methylnaphthalene mixed 1:1 with hexanethiol 200 μmol/L, PVP substrate, heated at 150° C. for 35 minutes, drain voltage 50 V): 3.3×10^−2 cm^2/Vs
field-effect mobility (μ) ([2]; bottom gate-bottom contact, 0.2 wt % solution in 1-methylnaphthalene mixed 1:1 with octadecanethiol 200 μmol/L, PVP substrate, heated at 150° C. for 35 minutes, drain voltage 50 V): 2.8×10^−2 cm^2/Vs
field-effect mobility (μ) ([2]; bottom gate-bottom contact, ink 0.06 wt % in 1-methylnaphthalene heated at 120° C., PVP substrate, heated at 150° C. for 35 minutes, drain voltage 50 V): 5.1×10^−3 cm^2/Vs
field-effect mobility (μ) ([2]; bottom gate-bottom contact, ink 0.1 wt % in 1-methylnaphthalene heated at 120° C., PVP substrate, heated at 150° C. for 35 minutes, drain voltage 50 V): 1.6×10^−2 cm^2/Vs
field-effect mobility (μ) ([2]; bottom gate-bottom contact, ink 0.1 wt % in 1-methylnaphthalene:methyl salicylate=1:1 heated at 120° C., PVP substrate, heated at 150° C. for 35 minutes, drain voltage 50 V): 2.6×10^−2 cm^2/Vs
field-effect mobility (μ) ([2]; ink 0.01 wt % in cyclohexylbenzene heated at 100° C., PVP substrate, heated at 100° C. for 35 minutes, drain voltage 50 V): 1.6×10^−1 cm^2/Vs
field-effect mobility (μ) ([2]; ink 0.01 wt % in cyclohexylbenzene:1-methylnaphthalene=1:0.3 heated at 100° C., PVP substrate, heated at 100° C. for 35 minutes, drain voltage 50 V): 1.8×10^−1 cm^2/Vs
field-effect mobility (μ) ([2]; ink 0.03 wt % in 1-methylnaphthalene heated at 100° C., PVP substrate, heated at 100° C. for 35 minutes, drain voltage 50 V): 6.0×10^−2 cm^2/Vs
field-effect mobility (μ) ([2]; ink 0.03 wt % in chlorobenzene heated at 100° C., PVP substrate, heated at 100° C. for 35 minutes, drain voltage 50 V): 3.1×10^−1 cm^2/Vs
field-effect mobility (μ) ([2]; ink 0.03 wt % in methyl benzoate heated at 100° C., PVP substrate, heated at 100° C. for 35 minutes, drain voltage 50 V): 3.8×10^−1 cm^2/Vs
field-effect mobility (μ) ([2]; ink 0.03 wt % in tetralin heated at 100° C., PVP substrate, heated at 100° C. for 35 minutes, drain voltage 50 V): 2.7×10^−1 cm^2/Vs

FC(F)(F)Oc1cccc(-c2ccc(-c3c4c(c(-c5ccc(-c6cccc(OC(F)(F)F)c6)s5)c5nsnc35)N=S=N4)s2)c1 [Compound (C1), 4,8-bis[5-(3-(trifluoromethoxy)phenyl)thiophene-2-yl]benzo[1,2-c:4,5-c′]bis[1,2,5]thiadiazole]
field-effect mobility (μ) ([1]; ink 0.3 wt % in mesitylene heated at 130° C., CYC substrate, heated at 210° C. for 1 minute, drain voltage 100 V): 1.6×10^0 cm^2/Vs
field-effect mobility (μ) ([1]; ink 0.3 wt % in mesitylene heated at 130° C., PS substrate, no annealing, drain voltage 100 V): 1.3×10^−1 cm^2/Vs
field-effect mobility (μ) ([1]; ink 0.3 wt % in mesitylene heated at 130° C., PVP substrate, heated at 180° C. for 35 minutes, drain voltage 100 V): 6.1×10^−1 cm^2/Vs
field-effect mobility (μ) ([2]; bottom gate-bottom contact device on glass substrate, polyvinylphenol-melamine film, ink 0.2 wt % in methyl salicylate heated at 100° C., dried at 80° C., drain voltage 40 V): 1.0×10^−1 cm^2/Vs
field-effect mobility (μ) ([2]; bottom gate-top contact device on glass substrate, polyvinylphenol-melamine film, ink 0.2 wt % in methyl salicylate heated at 100° C., dried at 80° C., drain voltage 40 V): 6.3×10^−1 cm^2/Vs
field-effect mobility (μ) ([2]; ink 0.1 wt % in 1,2-dichlorobenzene heated at 130° C., drop-casted at 130° C. under nitrogen, dried at 80° C., PVP substrate, drain voltage 100 V): 2.0×10^−1 cm^2/Vs
field-effect mobility (μ) [3, 7]: 5.6×10^−1 cm^2/Vs
field-effect mobility (μ) ([3]; HMDS-modified substrate, left in the atmosphere 14 days in total): 4.9×10^−1 cm^2/Vs
field-effect mobility (μ) ([3]; HMDS-modified substrate, left in the atmosphere 28 days in total): 4.8×10^−1 cm^2/Vs
field-effect mobility (μ) ([3]; HMDS-modified substrate, left in the atmosphere 60 days in total): 4.8×10^−1 cm^2/Vs
field-effect mobility (μ) ([3]; HMDS-modified substrate, left in the atmosphere 89 days in total): 4.7×10^−1 cm^2/Vs
field-effect mobility (μ) ([3]; HMDS-modified substrate, left in the atmosphere 118 days in total): 6.3×10^−1 cm^2/Vs
field-effect mobility (μ) ([3]; HMDS-modified substrate, left in the atmosphere for 7 days): 4.8×10^−1 cm^2/Vs
field-effect mobility (μ) ([3]; PS substrate, initial): 5.3×10^−1 cm^2/Vs
field-effect mobility (μ) ([3]; PS substrate, left in the atmosphere 14 days in total): 4.1×10^−1 cm^2/Vs
field-effect mobility (μ) ([3]; PS substrate, left in the atmosphere 28 days in total): 4.1×10^−1 cm^2/Vs
field-effect mobility (μ) ([3]; PS substrate, left in the atmosphere 60 days in total): 4.1×10^−1 cm^2/Vs
field-effect mobility (μ) ([3]; PS substrate, left in the atmosphere 89 days in total): 4.2×10^−1 cm^2/Vs
field-effect mobility (μ) ([3]; PS substrate, left in the atmosphere 118 days in total): 4.2×10^−1 cm^2/Vs
field-effect mobility (μ) ([3]; PS substrate, left in the atmosphere for 7 days): 4.1×10^−1 cm^2/Vs

CCCCCCc1cc(-c2ccc(-c3c4c(c(-c5ccc(-c6ccc(C#N)c(CCCCCC)c6)s5)c5nsnc35)N=S=N4)s2)ccc1C#N [Compound (C8), 4,8-bis[5-(4-cyano-3-hexylphenyl)thiophene-2-yl]benzo[1,2-c:4,5-c′]bis[1,2,5]thiadiazole]
field-effect mobility (μ) ([1]; ink 0.1 wt % in chloroform heated at 60° C., CYC substrate, heated at 150° C. for 35 minutes, drain voltage 100 V): 4.3×10^−1 cm^2/Vs
field-effect mobility (μ) [1, 4]: 4.6×10^−1 cm^2/Vs
field-effect mobility (μ) [1, 5]: 2.0×10^0 cm^2/Vs
field-effect mobility (μ) ([1]; ink 0.1 wt % in chloroform heated at 60° C., PS substrate, heated at 120° C. for 35 minutes, drain voltage 100 V): 2.7×10^−1 cm^2/Vs
field-effect mobility (μ) [1, 6]: 7.3×10^−1 cm^2/Vs
field-effect mobility (μ) ([1]; ink 0.1 wt % in chloroform heated at 60° C., bare substrate, heated at 240° C. for 35 minutes, drain voltage 100 V): 7.1×10^−1 cm^2/Vs
field-effect mobility (μ) ([1]; ink 0.1 wt % in chloroform heated at 60° C., bare substrate, no annealing, drain voltage 100 V): 4.9×10^−1 cm^2/Vs
field-effect mobility (μ) ([2]; ink 0.03 wt % in 1,2-dichlorobenzene heated at 130° C., drop-casted at 100° C. under nitrogen, PVP substrate, drain voltage 100 V): 7.3×10^−1 cm^2/Vs

FC(F)(F)c1ccccc1-c1ccc(-c2c3c(c(-c4ccc(-c5ccccc5C(F)(F)F)s4)c4nsnc24)N=S=N3)s1 [Compound (RR2), 4,8-bis[5-(2-(trifluoromethyl)phenyl)thiophene-2-yl]benzo[1,2-c:4,5-c′]bis[1,2,5]thiadiazole, reference compound]
field-effect mobility (μ) ([1]; ink 0.3 wt % in mesitylene heated at 60° C., PS substrate, no annealing, drain voltage 100 V): did not have the transistor characteristics
field-effect mobility (μ) ([1]; ink 0.3 wt % in mesitylene heated at 60° C., PVP substrate, heated at 120° C. for 35 minutes, drain voltage 100 V): 5.1×10^−2 cm^2/Vs
field-effect mobility (μ) [3, 7]: 3.8×10^−1 cm^2/Vs
field-effect mobility (μ) ([3]; PS substrate, initial): 3.1×10^−2 cm^2/Vs
